# Test results taken from publication PMC5381226.
# Amino acid sequences for entries named in this document (tags omitted). Residues count along the entry.
# UniProt Q9Z0X1, residues 102-612: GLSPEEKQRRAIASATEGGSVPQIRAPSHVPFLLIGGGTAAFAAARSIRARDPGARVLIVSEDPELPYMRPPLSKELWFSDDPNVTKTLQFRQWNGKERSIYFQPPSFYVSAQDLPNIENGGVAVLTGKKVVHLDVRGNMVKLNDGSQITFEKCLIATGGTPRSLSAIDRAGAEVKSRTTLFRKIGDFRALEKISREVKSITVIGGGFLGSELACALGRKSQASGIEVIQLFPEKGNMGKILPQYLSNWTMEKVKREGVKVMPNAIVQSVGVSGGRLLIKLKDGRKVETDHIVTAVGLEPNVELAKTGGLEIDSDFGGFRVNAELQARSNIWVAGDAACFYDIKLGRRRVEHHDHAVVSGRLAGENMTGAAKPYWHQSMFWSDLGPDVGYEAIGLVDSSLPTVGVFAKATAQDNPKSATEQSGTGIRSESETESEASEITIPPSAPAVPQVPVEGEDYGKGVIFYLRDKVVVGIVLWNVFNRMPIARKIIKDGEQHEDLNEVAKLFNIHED
# UniProt Q80V62: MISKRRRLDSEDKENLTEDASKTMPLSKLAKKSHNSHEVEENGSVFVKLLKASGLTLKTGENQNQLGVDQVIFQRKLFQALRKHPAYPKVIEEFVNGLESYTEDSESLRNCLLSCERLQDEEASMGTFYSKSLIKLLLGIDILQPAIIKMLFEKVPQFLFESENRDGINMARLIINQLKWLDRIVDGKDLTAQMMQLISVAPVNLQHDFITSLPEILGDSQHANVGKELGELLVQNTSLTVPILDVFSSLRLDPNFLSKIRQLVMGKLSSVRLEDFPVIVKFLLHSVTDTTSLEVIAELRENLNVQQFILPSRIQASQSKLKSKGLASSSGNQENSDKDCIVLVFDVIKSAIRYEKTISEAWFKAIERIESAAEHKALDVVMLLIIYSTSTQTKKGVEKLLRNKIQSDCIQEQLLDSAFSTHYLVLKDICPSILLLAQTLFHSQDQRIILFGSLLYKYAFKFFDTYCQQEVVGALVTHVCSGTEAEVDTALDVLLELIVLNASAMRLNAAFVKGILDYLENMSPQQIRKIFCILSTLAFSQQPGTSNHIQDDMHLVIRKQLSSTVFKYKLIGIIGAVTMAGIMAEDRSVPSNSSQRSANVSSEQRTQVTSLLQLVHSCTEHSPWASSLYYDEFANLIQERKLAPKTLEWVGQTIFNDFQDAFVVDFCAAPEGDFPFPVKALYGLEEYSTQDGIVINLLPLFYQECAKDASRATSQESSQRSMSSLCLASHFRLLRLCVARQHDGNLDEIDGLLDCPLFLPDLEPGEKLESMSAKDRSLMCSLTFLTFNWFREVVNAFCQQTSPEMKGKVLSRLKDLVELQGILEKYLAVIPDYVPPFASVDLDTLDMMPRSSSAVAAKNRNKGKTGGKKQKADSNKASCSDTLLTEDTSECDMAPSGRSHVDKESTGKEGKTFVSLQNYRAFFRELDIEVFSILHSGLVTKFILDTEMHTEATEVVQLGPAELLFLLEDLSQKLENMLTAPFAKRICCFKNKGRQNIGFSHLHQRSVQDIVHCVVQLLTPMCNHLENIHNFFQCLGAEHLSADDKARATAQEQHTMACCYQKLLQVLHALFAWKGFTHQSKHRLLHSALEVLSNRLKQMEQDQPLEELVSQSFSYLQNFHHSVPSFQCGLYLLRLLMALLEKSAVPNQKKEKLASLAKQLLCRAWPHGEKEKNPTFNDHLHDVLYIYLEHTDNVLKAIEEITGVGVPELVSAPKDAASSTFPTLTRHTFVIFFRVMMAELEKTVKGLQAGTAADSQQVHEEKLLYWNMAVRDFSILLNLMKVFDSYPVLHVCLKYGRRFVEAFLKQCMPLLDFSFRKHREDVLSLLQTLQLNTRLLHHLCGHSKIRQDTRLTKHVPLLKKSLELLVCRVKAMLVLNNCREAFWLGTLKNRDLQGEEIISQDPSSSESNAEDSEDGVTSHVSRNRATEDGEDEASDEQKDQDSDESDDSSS
# Results are given in words; binding and its absence hold for the method and conditions named. Binding seen in cells or lysates may run through a third protein. Some entries that bind do so weakly or less than the wild type.
# T1: Atad3 (mouse (endogenous in mouse tissues and cells)) (UniProt Q925I1)
# T1 sequence: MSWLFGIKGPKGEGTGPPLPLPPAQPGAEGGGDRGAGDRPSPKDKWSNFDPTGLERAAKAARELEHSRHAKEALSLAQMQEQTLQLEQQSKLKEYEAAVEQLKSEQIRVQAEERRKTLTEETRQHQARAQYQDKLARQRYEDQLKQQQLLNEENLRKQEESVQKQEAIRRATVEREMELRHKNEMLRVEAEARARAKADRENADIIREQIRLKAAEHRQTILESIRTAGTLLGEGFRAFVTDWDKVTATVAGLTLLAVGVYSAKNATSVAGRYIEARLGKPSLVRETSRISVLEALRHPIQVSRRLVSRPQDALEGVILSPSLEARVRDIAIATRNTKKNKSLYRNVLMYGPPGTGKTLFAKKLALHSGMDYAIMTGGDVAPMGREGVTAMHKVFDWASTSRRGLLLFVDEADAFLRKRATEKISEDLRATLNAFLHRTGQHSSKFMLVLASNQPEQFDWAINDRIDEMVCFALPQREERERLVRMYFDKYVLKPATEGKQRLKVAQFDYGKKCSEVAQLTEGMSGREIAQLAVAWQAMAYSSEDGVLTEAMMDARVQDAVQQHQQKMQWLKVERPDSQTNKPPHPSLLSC
# B1: Tfam (Transcription Factor A, Mitochondrial) (protein, UniProt P40630 43-243)
# chain: SSMGSYPKKPMSSYLRFSTEQLPKFKAKHPDAKLSELVRKIAALWRELPEAEKKVYEADFKAEWKAYKEAVSKYKEQLTPSQLMGMEKEARQRRLKKKALVKRRELILLGKPKRPRSAYNIYVSESFQEAKDDSAQGKLKLVNEAWKNLSPEEKQAYIQLAKDDRIRYDNEMKSWEEQMAEVGRSDLIRRSVKRSGDISEH
# B2: Fanci (protein, UniProt Q8K368 1-1330)
# chain: MDLKILSLATDKTTDKLQEFLQTLKDDDLASLLQNQAVKGRAVGTLLRAVLKGSPCSEEDGALRRYKIYSCCIQLVESGDLQQDVASEIIGLLMLEVHHFPGPLLVDLASDFVGAVREDRLVNGKSLELLPIILTALATKKEVLACGKGDLNGEEYKRQLIDTLCSVRWPQRYMIQLTSVFKDVCLTPEEMNLVVAKVLTMFSKLNLQEIPPLVYQLLVLSSKGSRRSVLDGIIAFFRELDKQHREEQSSDELSELITAPADELYHVEGTVILHIVFAIKLDCELGRELLKHLKAGQQGDPSKCLCPFSIALLLSLTRIQRFEEQVFDLLKTSVVKSFKDLQLLQGSKFLQTLVPQRTCVSTMILEVVRNSVHSWDHVTQGLIEFGFILMDSYGPKKILDGKAVEIGTSLSKMTNQHACKLGANILLETFKIHEMIRQEILEQVLNRVVTRTSSPINHFLDLFSDIIMYAPLILQNCSKVTETFDYLTFLPLQTVQGLLKAVQPLLKISMSMRDSLILVLRKAMFASQLDARKSAVAGFLLLLKNFKVLGSLPSSQCTQSIGVTQVRVDVHSRYSAVANETFCLEIIDSLKRSLGQQADIRLMLYDGFYDVLRRNSQLASSIMQTLFSQLKQFYEPEPDLLPPLKLGACVLTQGSQIFLQEPLDHLLSCIQHCLAWYKSRVVPLQQGDEGEEEEEELYSELDDMLESITVRMIKSELEDFELDKSADFSQNTNVGIKNNICACLIMGVCEVLMEYNFSISNFSKSKFEEILSLFTCYKKFSDILSEKAGKGKAKMTSKVSDSLLSLKFVSDLLTALFRDSIQSHEESLSVLRSSGEFMHYAVNVTLQKIQQLIRTGHVSGPDGQNPDKIFQNLCDITRVLLWRYTSIPTSVEESGKKEKGKSISLLCLEGLQKTFSVVLQFYQPKVQQFLQALDVMGTEEEEAGVTVTQRASFQIRQFQRSLLNLLSSEEDDFNSKEALLLIAVLSTLSRLLEPTSPQFVQMLSWTSKICKEYSQEDASFCKSLMNLFFSLHVLYKSPVTLLRDLSQDIHGQLGDIDQDVEIEKTDHFAVVNLRTAAPTVCLLVLSQAEKVLEEVDWLIAKIKGSANQETLSDKVTPEDASSQAVPPTLLIEKAIVMQLGTLVTFFHELVQTALPSGSCVDTLLKGLSKIYSTLTAFVKYYLQVCQSSRGIPNTVEKLVKLSGSHLTPVCYSFISYVQNKSSDAPKCSEKEKAAVSTTMAKVLRETKPIPNLVFAIEQYEKFLIQLSKKSKVNLMQHMKLSTSRDFKIKGSVLDMVLREDEEDENEEGTASAHTQQDREPAKKRRKKCLS
# Key:
# [1] = molecular target: T1, Atad3 (mouse (endogenous in mouse tissues and cells)); assay: co-IP; immunoprecipitation with antibodies to Atad3, Tufm and Aifm from lysates of Fancd2^KI/KI spleen MNCs (also Fanca-/- Fancd2^KI/KI and Fancd2-/- spleen MNCs), immunoblot
# [2] = molecular target: Aifm (Apoptosis-Inducing Factor, Mitochondrion-Associated) (mouse (endogenous in mouse tissues)) (UniProt Q9Z0X1); assay: as above
# [3] = molecular target: 3XFLAG/HA-tagged Fancd2 (mouse) (UniProt Q80V62); assay: co-IP; anti-FLAG immunoprecipitation of tagged Fancd2 and immunoblot of partners; spleen MNCs (Fig. 2D); tissue of Supplemental Fig. 3 not told
Molecule,binding [1],binding [2],binding [3]
3XFLAG/HA-tagged Fancd2 (from UniProt Q80V62 1-1450),binds,binds,–
B1,binds,–,–
B2,–,–,binds
